Laboratory results from paper PMC12029333.

T1: GST-PrkC (Serine/threonine-protein kinase PrkC) (Bacillus subtilis str. 168) (UniProt O34507)
T1 sequence: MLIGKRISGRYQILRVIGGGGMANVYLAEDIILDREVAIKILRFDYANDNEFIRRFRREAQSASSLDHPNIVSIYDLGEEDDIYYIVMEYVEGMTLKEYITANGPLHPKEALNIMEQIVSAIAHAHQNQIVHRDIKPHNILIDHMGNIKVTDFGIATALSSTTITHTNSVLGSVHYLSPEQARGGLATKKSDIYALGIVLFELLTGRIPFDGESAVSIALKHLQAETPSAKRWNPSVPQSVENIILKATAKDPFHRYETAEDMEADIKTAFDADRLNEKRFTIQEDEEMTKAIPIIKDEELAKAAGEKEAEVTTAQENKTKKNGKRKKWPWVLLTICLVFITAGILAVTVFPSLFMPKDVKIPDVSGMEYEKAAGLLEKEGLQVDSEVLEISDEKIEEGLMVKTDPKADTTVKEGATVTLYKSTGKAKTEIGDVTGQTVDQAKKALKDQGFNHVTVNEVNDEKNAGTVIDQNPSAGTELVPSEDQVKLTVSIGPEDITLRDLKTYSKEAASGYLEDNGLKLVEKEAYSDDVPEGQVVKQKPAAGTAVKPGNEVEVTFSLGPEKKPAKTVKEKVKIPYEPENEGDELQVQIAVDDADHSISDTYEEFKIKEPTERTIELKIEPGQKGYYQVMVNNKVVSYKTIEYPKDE

B1: Acyl-CoA dehydrogenase (protein, UniProt P45867 1-379)
chain: MNFSLSEEHEMIRKLVRDFAKHEVAPTAAERDEQERFDRELFREMANLGLTGIPWPEDYGGIGSDYLAYVIAVEELSKVCASTGVTLSAHISLCSWPLFAFGTEEQKTEYLTQLALGEKIGAFALTEAGSGSDAGSMKTTAERIGDDYVLNGSKVFITNGGVADIYIVFAVTDPEKKKKGVTAFIVEKDFEGFFTGKKEKKLGIRSSPTTEIMFEDCVVPASKRLGEEGEGFKIAMKTLDGGRNGIAAQAVGIAQGALDAALQYAKERKQFGKSIAEQQGIAFKLADMATMIEASRLLTYQAAWLESSGLPYGKASAMSKLMAGDTAMKVTTEAVQIFGGYGYTKDYPVERYMRDAKITQIYEGTQEIQRLVISRMLAD
B2: 3-oxoacyl-[acyl-carrier-protein] reductase FabG (protein, UniProt P51831 1-246)
chain: MLNDKTAIVTGASRGIGRSIALDLAKSGANVVVNYSGNEAKANEVVDEIKSMGRKAIAVKADVSNPEDVQNMIKETLSVFSTIDILVNNAGITRDNLIMRMKEDEWDDVININLKGVFNCTKAVTRQMMKQRSGRIINVSSIVGVSGNPGQANYVAAKAGVIGLTKSSAKELASRNITVNAIAPGFISTDMTDKLAKDVQDEMLKQIPLARFGEPSDVSSVVTFLASEGARYMTGQTLHIDGGMVM
B3: Probable peptidoglycan glycosyltransferase FtsW (protein, UniProt O07639 1-403)
chain: MLKKMLKSYDYSLIFAIVLLCGFGLVMVYSSSMITAVSRYGVSSNFFFMRQLFALIAGGALFILMALFPYKALAHQKFQKGILLVSVLALISLFVFGHVAGNAQSWFKIGGMSIQPGEFVKLVVILYLAAVYAKKQSYIDHLLTGVAPPVVMTLIICGLIAMQPDFGTAMIIGLIATCMILCSGFSGKTLVRLVILGGIVFILVSPIIYLNQDKILTEGRLARFESLEDPFKYANSSGLQVINSYYAISSGGIFGLGLGESIQKYGYLPESHTDFIMAVIAEELGIFGVLFVIFLLGFVVIKGFYIARKCEDPFGSLLAIGISSMIAIQSFINLGGVSGLIPITGVTLPFISYGGSSLVLLLGSMGILANISMFVKYSENKKKKEPLAPKGMKKKQLKKTVYL
B4: Probable glycine dehydrogenase (decarboxylating) subunit 1 (protein, UniProt P54376 1-448)
chain: MKHRYLPATEKDKQEMLATIGVSSIDDLFADIPENVKYKKEHQIKKAKSETELTRELTKLASKNRDTVQYASFLGAGVYDHYQPVIVDHVISRSEFYTAYTPYQPEISQGELQAIFEFQTMICELTGMDIANSSMYDGGTALAEAAMLASGHTKKKKIVVSKTVHPESREVLKTYAKGQYIDVVEVPAADGVTDLDALRQTVCENTAAVIVQYPNFFGRIEPLKDIEPIAHQGKSMFIVSANPLALGLLTPPGKFQSDIVVGDAQPFGIPSAYGGPHCGFFAVTKKLMRKVPGRLVGQTEDENGKRGFVLTLQAREQHIRRDKATSNICSNQALNALAASVAMTALGKNGVKDIARQNLLKANYAKQEAKKAGLTVMFDGPMFNEFVIKLDEPVRAVNKRLLAKGMIGGYDLGLTYPELDCHMLIAVTELRTKEEIDALIQELGDRHE
B5: Uroporphyrinogen-III synthase (protein, UniProt P21248 1-262)
chain: MENDFPLKGKTVLVTRNKAQAASFQQKVEALGGKAVLTSLITFRRALPNDVAEQVREDLAAPGWLVFTSVNGADFFFSYLKENQLILPAHKKIAAVGEKTARRLKMHNVSVDVMPQEYIAEQLADALKQHAEPGETITVMKGNLSRDVIKQELVPLGFEVKEWVLYETIPDEEGIEALKDAAGQYSFDYVTFTSSSTVHTFMHVLGEELKKWKANGTACISIGPLTNDALLTYGITSHTPDTFTIDGMLELMCSMSREEERI
B6: Manganese transport system ATP-binding protein MntB (protein, UniProt O34338 1-250)
chain: MFPVELDNVTVAYHKKPVLQDISLQVPEGKLIGIIGPNGAGKSTLIKTILGLVPRASGDISIYGKDYKDQRTRIGYVPQRGSVDWDFPTSPLDVVLMGRYGRIGLLKRPKKADVEMAKAALTKVGMHDYAKRQISQLSGGQQQRVFLARALCQNADIYFMDEPFAGVDAATERAIMTLLAELKEKGKTVLVVHHDLQTAEDYFDWILLLHLRKIAFGPTENVFTIENLQKTYGGRLTFLKDKVLAEGHKE
B7: 2-hydroxy-3-keto-5-methylthiopentenyl-1-phosphate phosphatase (protein, UniProt O31667 1-235)
chain: MTTRKPFIICDFDGTITMNDNIINIMKTFAPPEWMALKDGVLSKTLSIKEGVGRMFGLLPSSLKEEITSFVLEDAKIREGFREFVAFINEHEIPFYVISGGMDFFVYPLLEGIVEKDRIYCNHASFDNDYIHIDWPHSCKGTCSNQCGCCKPSVIHELSEPNQYIIMIGDSVTDVEAAKLSDLCFARDYLLNECREQNLNHLPYQDFYEIRKEIENVKEVQEWLQNKNAGESSLK
B8: Beta-hexosaminidase (protein, UniProt P40406 17-642)
chain: CFFGARQTEASASKRAIDANQIVNRMSLDEKLGQMLMPDFRNWQKEGESSPQALTKMNDEVASLVKKYQFGGIILFAENVKTTKQTVQLTDDYQKASPKIPLMLSIDQEGGIVTRLGEGTNFPGNMALGAARSRINAYQTGSIIGKELSALGINTDFSPVVDINNNPDNPVIGVRSFSSNRELTSRLGLYTMKGLQRQDIASALKHFPGHGDTDVDSHYGLPLVSHGQERLREVELYPFQKAIDAGADMVMTAHVQFPAFDDTTYKSKLDGSDILVPATLSKKVMTGLLRQEMGFNGVIVTDALNMKAIADHFGQEEAVVMAVKAGVDIALMPASVTSLKEEQKFARVIQALKEAVKNGDIPEQQINNSVERIISLKIKRGMYPARNSDSTKEKIAKAKKIVGSKQHLKAEKKLAEKAVTVLKNEQHTLPFKPKKGSRILIVAPYEEQTASIEQTIHDLIKRKKIKPVSLSKMNFASQVFKTEHEKQVKEADYIITGSYVVKNDPVVNDGVIDDTISDSSKWATVFPRAVMKAALQHNKPFVLMSLRNPYDAANFEEAKALIAVYGFKGYANGRYLQPNIPAGVMAIFGQAKPKGTLPVDIPSVTKPGNTLYPLGYGLNIKTGRPL
B9: Dihydrolipoyl dehydrogenase (protein, UniProt O34324 1-458)
chain: MTLAIIGGGPAGYAAAVSAAQQGRNVLLIDKGKLGGTCLNEGCIPTKSLLESANVLDKIKHADSFGIELPAGAISVDWSKMQSRKQQVVSQLVQGVQYLMKKNQIQVVKGTASFLSERKLLIEGENGKEIREADQVLIASGSEPIELPFAPFDGEWILDSKDALSLSEIPSSLVIVGGGVIGCEYAGLFARLGSQVTIIETADRLIPAEDEDIARLFQEKLEEDGVEVHTSSRLGRVDQTAKTAIWKSGQREFKTKADYVLVAIGRKPRLDGLQLEQAGVDFSPKGIPVNGHMQTNVPHIYACGDAIGGIQLAHAAFHEGIIAASHASGRDVKINEKHVPRCIYTSPEIACIGMTERQARSIYGDVKIGEFSFSANGKALIKQQAEGKVKIMAEPEFGEIVGVSMIGPDVTELIGQAAAIMNGEMTADMAEHFIAAHPTLSETLHEALLSTIGLAVHA
B10: Penicillin-binding protein 1F (protein, UniProt P38050 1-714)
chain: MFKIKKKKLFIPIIILVLTAFLALIGYISIIFLGHYVIDEKKLILHASSKIVDQNGDEVASLYTENREPVSINEIPKQVREAFIAVEDKRFYEHHGIDAKSVGRAVYRDILAGGKVEGGSTITQQLAKNIFLTHDKTFLRKTKEVIIAINLERDYSKDKLLEMYLNQLYFGHGVYGIQAASHYYFNKEVKDLTVSEGAVLAAIPKAPSTYSPILHPDKNKERRDTILGMMNDQGYISAKEAVTAQGRTLGLHVKKQSETPWFDSYIDLVIKEAEDKYSISGEQLLQGGYTIKVPLDSKLQKTAYQVMKEGSYYPGTDQNAEGSAVFINNKTGGVEAAIGGRDYTSKGYNRVTAVRQPGSTFKPLAVYGPAMQEKKFKPYSLLKDELQSYGDYTPKNYDSRYEGEVTMSDAITYSKNAPAVWTLNEIGVETGKSYLKANGIDIPDEGLALALGGLEKGVSPLQLAGAFHTFAANGTYTEPFFISSIIDEDGETIADHKEEGKRVFSKQTSWNMTRMLQQVVKKGTATSGTYHGDLAGKTGSTSYTGVSGATKDAWFAGYTPKITGAVWMGYDKTDQNHYLKAGSSYPTRLFKDILTQAGETGHVFTKPKNVKELESPIELKPVKTLTADYTFKAAGLFTIELKWDAQEDDRAVYRIYVNKDGEETLLDSVEGKGSYEIPYANLFSGASYKIVPYNTQTKREGEGTDYVQPKLFSS
B11: Peptidoglycan-N-acetylmuramic acid deacetylase PdaC (protein, UniProt O34798 1-467)
chain: MLAKRIKWFHVLIAVVCVVGLIGFFHNHSLKKETVMNKVRTDSQYGNVEIATLVNDGKTFNYAVNYPVFKNEKMDSALKRFAEKEVRQFQKETKDVDQEHTTKRNELNVDYKIVHYAKQTVAIVFNEYKYIGGAHGQTVKKTFNYDFSKQAFLSIDDIFKEDADYLHKLSLIAYHELKKNKDIAADDALLKEGTAPKKENFSRFAIKEDYIELYFDTYQVAAGYLGEQSIAIKKSLLKDILKEQYIDKAKNKNKIKEQKPKHEVISLPKEETVDPNQKVIALTFDDGPNPATTNQILDSLKKYKGHATFFVLGSRVQYYPETLIRMLKEGNEVGNHSWSHPLLTRLSVKEALKQINDTQDIIEKISGYRPTLVRPPYGGINDELRSQMKMDVALWDVDPEDWKDRNKKTIVDRVMNQAGDGRTILIHDIYRTSADAADEIIKKLTDQGYQLVTVSQLEEVKKQREAK
B12: Pectin lyase (protein, UniProt O34819 25-345)
chain: AVDFPNTSTNGLLGFAGNAKNEKGISKTGTTGGKNGQIVYIQSVNDLKTHLGGSTPKILVLQNDLSASAKTTVTIGSNKTLVGSYAKKTLKNIYLTTSSAFGNVIFQNLTFEHSPQINGNNDIQLYLDSGMNYWIDHVTFSGHSYNASGSDLDKLVYIGKSADYITISNSKFANHKYGLILGYPDDSQHQYDGYPHMTIANNYFENLYVRGPGLMRYGYFHVKNNYSNNFNQAITIATKAKIYSEYNYFGKGSEKGGILDDKGTGYFKDIGSYPSLNKQTSPLTSWNPGSNYSYRVQTPEYTKEFVTKYAGSQSTTLVFGY
B13: Uncharacterized phosphatase PhoE (protein, UniProt O07617 1-193)
chain: MTAVCLVRHGETDWNLQQKCQGKTDIPLNATGERQARETGEYVKDFSWDIIVTSPLKRAKRTAEIINEYLHLPIVEMDDFKERDYGDAEGMPLEERTKRYPDNIYPNMETLEELTDRLMGGLAKVNQAYPNKKVLIVAHGAAIHALLTEISGGDPELQSTRLVNACLSNIEFAEEKWRIKDYNINSHLSGFIK

What follows are binders tested against T1, GST-PrkC (Serine/threonine-protein kinase PrkC) (Bacillus subtilis str. 168) (assay: affinity purification with mass spectrometry; GST-PrkC on glutathione resin incubated with B. subtilis spore lysate at 4 °C; resin washed; bound proteins eluted with 20 mM reduced glutathione; eluate digested with trypsin and analysed by LC-MS/MS; hits filtered at 1% FDR, >=2 unique peptides; only the target purified).
With B1 the binding was “binds”. With B2 the binding was “binds”. In the case of B3, the binding is reported as “binds”. In the case of B4, the binding is reported as “binds”. With B5 the binding was “binds”. With B6 the binding was “binds”. With B7 the binding was “binds”. For B8, the binding was “binds”. For B9, the binding was “binds”. B10 was tested, and the binding was “binds”. With B11 the binding was “binds”. In the case of B12, the binding is reported as “binds”. B13 was tested, and the binding was “binds”.

Results are given in words; binding and its absence hold for the method and conditions named. In cells and extracts the contact can be indirect. These calls come from enrichment with a bait or labelling near it, and not all partners need be listed. Sequences can lack the tags named with a protein.
